Biological target: T1, A. borkumensis YdaH (Alcanivorax borkumensis, UniProt Q0VR69)
T1 sequence (Q0VR69 1-492): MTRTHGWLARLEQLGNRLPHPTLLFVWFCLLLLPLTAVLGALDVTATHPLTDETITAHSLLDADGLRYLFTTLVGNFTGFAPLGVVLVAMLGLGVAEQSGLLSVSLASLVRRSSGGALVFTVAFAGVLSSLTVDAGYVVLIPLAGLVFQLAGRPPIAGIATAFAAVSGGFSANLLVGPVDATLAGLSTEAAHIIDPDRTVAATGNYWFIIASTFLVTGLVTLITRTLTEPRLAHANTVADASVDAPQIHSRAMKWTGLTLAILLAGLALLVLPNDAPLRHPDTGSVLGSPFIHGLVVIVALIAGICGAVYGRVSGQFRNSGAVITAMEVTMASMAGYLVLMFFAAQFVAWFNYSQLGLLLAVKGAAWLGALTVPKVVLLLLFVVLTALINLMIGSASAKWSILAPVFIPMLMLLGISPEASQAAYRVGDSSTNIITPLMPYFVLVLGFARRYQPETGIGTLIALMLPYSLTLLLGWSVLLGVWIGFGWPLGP
Test: isothermal titration calorimetry
Assay type: binding

`Nc1ccc(S(N)(=O)=O)cc1` [sulfanilamide] gave a Kd of 4.97 ± 0.26 µM.
